Among the data in article doi:10.1101/2025.05.19.654886 are binding values, retold here.

By UniProt entry, the sequences of proteins in these tests, tags left out. Where a name states a change or a piece, a line headed by the entry shows the natural chain unless it says otherwise.
UniProt O95721: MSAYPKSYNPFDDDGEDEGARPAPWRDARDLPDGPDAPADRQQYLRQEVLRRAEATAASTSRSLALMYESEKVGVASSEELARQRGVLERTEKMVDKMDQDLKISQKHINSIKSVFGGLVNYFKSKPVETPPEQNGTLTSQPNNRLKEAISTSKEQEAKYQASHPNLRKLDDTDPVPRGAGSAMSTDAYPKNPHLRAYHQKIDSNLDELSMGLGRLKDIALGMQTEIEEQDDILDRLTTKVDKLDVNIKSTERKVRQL
UniProt P56962: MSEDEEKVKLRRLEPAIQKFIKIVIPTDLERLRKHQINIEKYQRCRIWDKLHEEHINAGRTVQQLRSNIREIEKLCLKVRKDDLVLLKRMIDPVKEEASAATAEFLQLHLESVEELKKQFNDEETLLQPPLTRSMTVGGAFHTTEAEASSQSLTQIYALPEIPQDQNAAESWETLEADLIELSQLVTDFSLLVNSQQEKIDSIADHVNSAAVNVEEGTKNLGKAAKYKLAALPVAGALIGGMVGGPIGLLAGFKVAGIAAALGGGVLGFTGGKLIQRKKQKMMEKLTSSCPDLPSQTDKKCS
UniProt Q14457: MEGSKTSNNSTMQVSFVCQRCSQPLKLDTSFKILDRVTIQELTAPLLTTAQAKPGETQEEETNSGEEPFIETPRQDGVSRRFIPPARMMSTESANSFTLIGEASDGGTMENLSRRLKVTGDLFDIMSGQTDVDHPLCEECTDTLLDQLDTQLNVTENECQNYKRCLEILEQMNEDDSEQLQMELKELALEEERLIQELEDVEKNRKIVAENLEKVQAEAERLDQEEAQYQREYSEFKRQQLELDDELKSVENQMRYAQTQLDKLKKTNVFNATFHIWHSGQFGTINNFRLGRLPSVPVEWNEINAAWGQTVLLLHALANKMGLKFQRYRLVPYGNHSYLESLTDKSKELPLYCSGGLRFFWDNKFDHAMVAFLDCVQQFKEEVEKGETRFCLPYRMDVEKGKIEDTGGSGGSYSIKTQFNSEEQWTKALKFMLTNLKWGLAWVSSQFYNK
UniProt Q8TDY2: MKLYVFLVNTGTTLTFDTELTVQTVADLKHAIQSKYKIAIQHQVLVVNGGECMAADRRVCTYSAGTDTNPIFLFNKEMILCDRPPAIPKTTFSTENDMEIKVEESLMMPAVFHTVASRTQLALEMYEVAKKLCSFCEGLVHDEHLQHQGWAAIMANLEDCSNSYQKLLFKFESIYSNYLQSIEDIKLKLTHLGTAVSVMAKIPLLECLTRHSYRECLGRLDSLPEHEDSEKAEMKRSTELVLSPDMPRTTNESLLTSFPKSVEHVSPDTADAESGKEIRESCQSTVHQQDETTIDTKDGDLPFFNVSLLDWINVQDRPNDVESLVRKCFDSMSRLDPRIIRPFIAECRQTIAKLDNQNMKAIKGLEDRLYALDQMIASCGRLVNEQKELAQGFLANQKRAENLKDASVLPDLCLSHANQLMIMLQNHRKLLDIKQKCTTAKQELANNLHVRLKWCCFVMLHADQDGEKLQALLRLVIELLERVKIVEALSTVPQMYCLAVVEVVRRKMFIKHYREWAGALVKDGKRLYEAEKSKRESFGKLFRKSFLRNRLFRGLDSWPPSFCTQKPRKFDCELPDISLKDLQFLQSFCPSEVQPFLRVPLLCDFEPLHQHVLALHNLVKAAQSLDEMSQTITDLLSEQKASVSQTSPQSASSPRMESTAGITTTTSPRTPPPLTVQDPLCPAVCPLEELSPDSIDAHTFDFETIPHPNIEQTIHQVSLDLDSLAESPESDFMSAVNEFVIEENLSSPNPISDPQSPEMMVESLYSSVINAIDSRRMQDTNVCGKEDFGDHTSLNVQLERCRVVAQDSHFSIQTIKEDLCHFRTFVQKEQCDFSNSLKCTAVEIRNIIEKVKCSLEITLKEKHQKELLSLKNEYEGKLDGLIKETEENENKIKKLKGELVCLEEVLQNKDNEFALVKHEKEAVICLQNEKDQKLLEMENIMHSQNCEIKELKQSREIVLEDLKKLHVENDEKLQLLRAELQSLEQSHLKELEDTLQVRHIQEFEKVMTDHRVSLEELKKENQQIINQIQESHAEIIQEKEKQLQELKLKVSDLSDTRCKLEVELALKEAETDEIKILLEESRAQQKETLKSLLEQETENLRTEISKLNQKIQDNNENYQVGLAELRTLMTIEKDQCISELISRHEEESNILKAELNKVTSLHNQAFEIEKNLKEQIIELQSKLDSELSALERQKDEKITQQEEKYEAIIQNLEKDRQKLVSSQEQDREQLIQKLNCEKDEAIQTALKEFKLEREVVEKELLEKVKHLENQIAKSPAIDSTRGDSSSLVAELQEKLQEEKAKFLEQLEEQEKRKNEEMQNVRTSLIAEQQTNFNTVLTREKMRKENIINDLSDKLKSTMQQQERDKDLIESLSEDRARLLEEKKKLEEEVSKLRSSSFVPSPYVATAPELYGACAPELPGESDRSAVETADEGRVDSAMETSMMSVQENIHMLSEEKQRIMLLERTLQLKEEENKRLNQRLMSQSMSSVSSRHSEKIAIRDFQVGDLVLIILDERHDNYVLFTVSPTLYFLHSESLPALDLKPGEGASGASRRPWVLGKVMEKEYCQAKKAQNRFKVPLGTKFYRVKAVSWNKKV
UniProt Q6ZNE5: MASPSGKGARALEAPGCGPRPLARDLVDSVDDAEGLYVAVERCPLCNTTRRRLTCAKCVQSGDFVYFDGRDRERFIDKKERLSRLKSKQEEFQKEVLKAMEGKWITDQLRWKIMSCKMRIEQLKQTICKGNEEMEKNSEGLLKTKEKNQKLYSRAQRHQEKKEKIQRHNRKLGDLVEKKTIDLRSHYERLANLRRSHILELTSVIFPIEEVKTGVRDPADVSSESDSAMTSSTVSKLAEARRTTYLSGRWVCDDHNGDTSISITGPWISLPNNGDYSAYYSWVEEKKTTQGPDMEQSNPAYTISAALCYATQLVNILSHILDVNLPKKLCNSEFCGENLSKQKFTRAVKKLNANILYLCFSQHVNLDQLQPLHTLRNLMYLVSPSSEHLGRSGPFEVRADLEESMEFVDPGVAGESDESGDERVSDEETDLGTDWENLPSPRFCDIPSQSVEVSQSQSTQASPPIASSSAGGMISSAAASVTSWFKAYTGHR

Results are given in words; binding and its absence hold for the method and conditions named. Binding seen in cells or lysates may run through a third protein. Some entries that bind do so weakly or less than the wild type.

The target in assay [1] is SNAP29 (purified, unmodified) (UniProt O95721). Kind of assay: co-IP.
The target in assay [2] is GST-STX17 (amino acids 1-224) (UniProt P56962). Kind of assay: pull-down.

In the case of “STX17 (endogenous) (from UniProt P56962 1-302)”, the binding result in assay [1] is on record as “binds”.

For the substance Beclin1 (from UniProt Q14457 1-450), the binding result in assay [2] is “no binding”.

Consider “GST-STX17 (amino acids 1-224) (from UniProt P56962 1-224) (domain or fragment)”, for which the binding result in assay [1] is given as “binds”.

Regarding FIP200 (from UniProt Q8TDY2 1-1594), in assay [2], the binding entry is recorded as “no binding”.

For “ATG14L (endogenous) (from UniProt Q6ZNE5 1-492)”, the binding result in assay [1] is recorded as “binds”.
